This assay has as its system BDF1 mice, B16 melanoma ip, median survival T/C. Briefly: NCI In Vivo Anticancer Drug Screen. Data for tumor model B16 Melanoma (intraperitoneal) in B6D2F1 (BDF1) mice. To be noted: T/C endpoint: median survival time, higher T/C = longer survival. A digest of the protocol:
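Survival or tumor size is measured after treatment of tumor-bearing mice and normalised to the vehicle-treated control group.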

Setting [1] is: dose: 32.0 mg/kg/injection, schedule: Q02DX009 (ip), vehicle: saline.
The mark [2] stands for this setting: dose: 50.0 mg/kg/injection, schedule: Q01DX009 (ip), vehicle: saline.
The mark [3] stands for this setting: dose: 100.0 mg/kg/injection, schedule: Q01DX009 (ip), vehicle: saline.
The mark [4] stands for this setting: dose: 200.0 mg/kg/injection, schedule: Q01DX009 (ip), vehicle: saline.
The mark [5] stands for this setting: dose: 50.0 mg/kg/injection, schedule: Q01DX009 (ip), vehicle: saline with Tween-80.
The mark [6] stands for this setting: dose: 400.0 mg/kg/injection, schedule: Q01DX009 (ip), vehicle: Klucel (hydroxypropylcellulose) (HPC).
Setting [7] is: dose: 100.0 mg/kg/injection, schedule: Q01DX009 (ip), vehicle: saline with Tween-80.
[8] abbreviates: dose: 200.0 mg/kg/injection, schedule: Q01DX009 (ip), vehicle: saline with Tween-80.
The mark [9] stands for this setting: dose: 400.0 mg/kg/injection, schedule: Q01DX009 (ip), vehicle: saline with Tween-80.
[10] abbreviates: dose: 6.25 mg/kg/injection, schedule: Q01DX009 (ip), vehicle: Klucel (hydroxypropylcellulose) (HPC).
The mark [11] stands for this setting: dose: 100.0 mg/kg/injection, schedule: Q01DX009 (ip), vehicle: Klucel (hydroxypropylcellulose) (HPC).
[12] abbreviates: dose: 200.0 mg/kg/injection, schedule: Q01DX009 (ip), vehicle: Klucel (hydroxypropylcellulose) (HPC).

The list does not hold the whole screen: it gathers tests that were run many times, whatever their T/C, doses with no T/C, and many T/C values between a quarter and a half above the control. Other doses and runs of a compound stand elsewhere. T/C is the treated group as % of the vehicle group. Some doses have a count of surviving animals in place of a T/C: the source files T/C as zero there, which appears to mark a toxic dose or a test without result, not a measured value. Some survivor counts are full or nearly so, which does not show that the dose was tolerated: the source hardly ever lists a survival T/C far under the control, and the zero likely stands for such cases as well. Survivors were counted at the toxicity check, usually on the fifth day, unless a day is given; later deaths do not show. Schedules are NCI's codes, read here as Q, the interval in days (D) or hours (H), X, the number of doses. Some doses were run more than once; the values are given in rising order. Signs of the kind (2×) say how often a value occurs here. For survival time, the PubChem record calls one and a half times the control and up active, and a quarter to a half above the control has no call in these data; cut-offs in other NCI protocols can differ. Some T/C values are followed by the survivors on the day toxicity was checked, most often the fifth; without a count, all were alive then.

Regarding `C1CN(P2(N3CC3)=NP(N3CC3)(N3CC3)=NP(N3CC3)(N3CC3)=N2)CCO1` (configuration not stated), the T/C reads like this: (dose: 3.13 mg/kg/injection, schedule: Q01DX009 (ip), vehicle: saline) 142 % of control; (dose: 4.0 mg/kg/injection, schedule: Q02DX009 (ip), vehicle: saline) 125 % of control; (dose: 6.25 mg/kg/injection, schedule: Q01DX009 (ip), vehicle: saline) 107, 124, 125, 126, 133, 142 % of control; (dose: 6.25 mg/kg/injection, schedule: Q02DX009 (ip), vehicle: saline) 125 and 126 % of control; (dose: 8.0 mg/kg/injection, schedule: Q02DX009 (ip), vehicle: saline) 141 and 144 % of control; (dose: 12.5 mg/kg/injection, schedule: Q01DX009 (ip), vehicle: saline) 116, 140, 148, 162, 164, 166 % of control. For the same molecule, the T/C is, setting by setting: (dose: 12.5 mg/kg/injection, schedule: Q02DX009 (ip), vehicle: saline) 131 % of control; (dose: 16.0 mg/kg/injection, schedule: Q02DX009 (ip), vehicle: saline) 129 % of control [8 of 10 alive]; (dose: 25.0 mg/kg/injection, schedule: Q01DX009 (ip), vehicle: saline) 149, 164, 166, 178, 188, 217 % of control; under setting [1], 122, 206, 224 % of control; under setting [2], 108 and 208 % of control. Also, the survivor count under setting [1] is 9 of 10; the survivor count under setting [2] is given as 10 of 10; the survivor count (dose: 50.0 mg/kg/injection, schedule: Q02DX009 (ip), vehicle: saline) was 10 of 10; the survivor count (dose: 64.0 mg/kg/injection, schedule: Q02DX009 (ip), vehicle: saline) is recorded as 10 of 10; the survivor count under setting [3] is 9 of 10 (2×) and 10 of 10; the survivor count (dose: 100.0 mg/kg/injection, schedule: Q02DX009 (ip), vehicle: saline) was 10 of 10. Moreover, the survivor count was 10 of 10 (dose: 128.0 mg/kg/injection, schedule: Q02DX009 (ip), vehicle: saline); 8 of 10 and 9 of 10 (2×) under setting [4]; 10 of 10 (dose: 200.0 mg/kg/injection, schedule: Q02DX009 (ip), vehicle: saline); 9 of 10 (dose: 256.0 mg/kg/injection, schedule: Q02DX009 (ip), vehicle: saline); 10 of 10 (dose: 512.0 mg/kg/injection, schedule: Q02DX009 (ip), vehicle: saline).
Take `CSCCC(C)C`: the survivor count (dose: 200.0 mg/kg/injection, schedule: Q04DX003 (ip), vehicle: saline with Tween-80) was 4 of 10.
For `CC(C(=O)N1c2ccccc2Sc2ccccc21)[N+]1(C)CCCC1` (configuration not stated), the survivor count under setting [3] is given as 0 of 10; the survivor count under setting [4] is given as 0 of 10; the survivor count (dose: 400.0 mg/kg/injection, schedule: Q01DX009 (ip), vehicle: saline) is recorded as 0 of 10.
For the molecule `CCCCCCCCCCCCCCCc1ccc(C(=O)C[n+]2ccccc2)cc1`, the survivor count under setting [5] is recorded as 10 of 10.
As for `CNC(=S)NCc1ccc(C(=O)NC(C)C)cc1`, under setting [6], the survivor count was 9 of 10.
`Cn1c2c(c3ccccc3c1=O)C(=O)c1ccccc1-2`: the survivor count by setting is: (dose: 12.5 mg/kg/injection, schedule: Q01DX009 (ip), vehicle: saline with Tween-80) 10 of 10; under setting [5], 10 of 10; under setting [7], 10 of 10; under setting [8], 10 of 10; under setting [9], 9 of 10.
For the molecule `CN(CCO)C1=C(N2CC2)C(=O)C(N(C)CCO)=C(N2CC2)C1=O`, the T/C by setting is: (dose: 400.0 micrograms/kg/injection, schedule: Q01DX009 (ip), vehicle: saline) 130 % of control; (dose: 800.0 micrograms/kg/injection, schedule: Q01DX009 (ip), vehicle: saline) 147 % of control.
For the molecule `CCNC1=C(N2CC2)C(=O)C(NCC)=C(N2CC2)C1=O`, the T/C (dose: 0.37 mg/kg/injection, schedule: Q01DX009 (ip), vehicle: saline) is 126 % of control. The survivor count reads like this: (dose: 1.5 mg/kg/injection, schedule: Q01DX009 (ip), vehicle: saline) 9 of 10 and 10 of 10; (dose: 3.0 mg/kg/injection, schedule: Q01DX009 (ip), vehicle: saline) 9 of 10.
As to `COc1cccc2c1C(=O)c1c(O)c3c(c(O)c1C2=O)C[C@@](O)(C(=O)CN1CCN(C)CC1)C[C@@H]3OC1CC(N)C(O)C(C)O1` (some centres not stated), the T/C was 133 % of control (dose: 6.25 mg/kg/injection, schedule: Q01DX009 (ip), vehicle: water); 128 % of control (dose: 12.5 mg/kg/injection, schedule: Q01DX009 (ip), vehicle: water); 139 % of control (dose: 25.0 mg/kg/injection, schedule: Q01DX009 (ip), vehicle: water).
For `CCC[N+](CCC)=c1ccc2nc3c(C)cc(N(CC)CC)cc3sc-2c1`, the survivor count is reported as 5 of 6 (dose: 1.25 mg/kg/injection, schedule: Q01DX009 (ip), vehicle: saline with Tween-80); 6 of 6 (dose: 2.5 mg/kg/injection, schedule: Q01DX009 (ip), vehicle: saline with Tween-80); 6 of 6 (dose: 5.0 mg/kg/injection, schedule: Q01DX009 (ip), vehicle: saline with Tween-80).
Turning to `CCCCc1c(OC)cc(O)c2c1C(=O)c1[nH]c(C(=O)O)c(O)c(=O)c1C2=O`, the survivor count (dose: 30.0 mg/kg/injection, schedule: Q01DX009 (ip), vehicle: Klucel (hydroxypropylcellulose) (HPC)) is given as 10 of 10.
Regarding `COc1ccc2c(c1)C13CCCCC1C(C2)N(CC1(c2ccccc2)CC1)CC3` (configuration not stated), the T/C under setting [10] is 128 % of control. Moreover, the survivor count under setting [10] is reported as 10 of 10, the survivor count under setting [11] was 10 of 10 and the survivor count under setting [12] was 10 of 10.
On to `Cc1c2ccnc(-c3ccccc3)c2cc2c1[nH]c1ccccc12`, for which the survivor count was 10 of 10 under setting [8] and 10 of 10 under setting [9].
Regarding `CCOC(=O)c1ccc(OC(=O)Nc2ccccc2)cc1`, the survivor count is, setting by setting: under setting [8], 10 of 10; under setting [9], 10 of 10.
For `COc1ccc(CCNC(C)=O)cc1OC`, the survivor count is, setting by setting: under setting [11], 10 of 10; under setting [12], 9 of 10.
As to `CC1(c2ccccc2)CCc2ccccc21` (configuration not stated), the survivor count under setting [7] was 10 of 10, the survivor count under setting [8] is given as 10 of 10 and the survivor count under setting [9] was 9 of 10.
Consider `C[C@@H]1CC[C@@]2(NC1)O[C@H]1C[C@H]3[C@@H]4CC=C5C[C@@H](O)CC[C@]5(C)[C@H]4CC[C@]3(C)[C@H]1[C@@H]2C`, for which the survivor count is 10 of 10 (dose: 25.0 mg/kg/injection, schedule: Q01DX009 (ip), vehicle: Klucel (hydroxypropylcellulose) (HPC)) and 10 of 10 (dose: 50.0 mg/kg/injection, schedule: Q01DX009 (ip), vehicle: Klucel (hydroxypropylcellulose) (HPC)).
For `O=C(Nc1ccc(F)cc1)NC1CCCCC1`, the survivor count under setting [6] was 6 of 6.
Consider `CCNCCCN`, for which the survivor count is 10 of 10 under setting [2] and 10 of 10 under setting [3].
Regarding `CC(C)(C)OC(=O)NC(N)=NCCCC(NC(=O)OC(C)(C)C)C(=O)O` (configuration not stated), the survivor count under setting [9] is listed as 10 of 10.
Turning to `Cc1c2ccccc2c(C)c2c1ccc1ccccc12`, the T/C (dose: 8.0 mg/kg/injection, schedule: Q01DX009 (ip), vehicle: saline with Tween-80) is 128 % of control. Further, the survivor count was 10 of 10 (dose: 32.0 mg/kg/injection, schedule: Q01DX009 (ip), vehicle: saline with Tween-80) and 10 of 10 (dose: 64.0 mg/kg/injection, schedule: Q01DX009 (ip), vehicle: saline with Tween-80).

Values taken from PubChem BioAssay AID192 (DTP/NCI, 2004).
